PubChem BioAssay AID1224829, NIAID – 2016
Here is an unselected part of about 3,800 reagents. 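Calls cover raised and lowered translocation; gene median uses one vendor's three siRNAs; qiagen siRNAs acted more weakly than ambion siRNAs.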 A number with no mark means an inactive call. Reagents against one gene are numbered here.

- Purpose: 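Secondary check of hits that alter LPS-induced p65 translocation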 (follow-up of hits)
- Cell system: mouse RAW264.7 G9 macrophage reporter cells
- Reagent: single siRNA against mouse genes, 100 nM
- Duration: 2 days of siRNA knock-down, then 40 min of LPS before fixing
- Treatment: LPS (Salmonella minnesota R595) at 10 ng/ml
- Measurement: 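High-content images after 40 min LPS exposure; GFP-p65 nucleus to surrounding ring signal ratio, normalised to plate median and non-targeting control wells, expressed as z-score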
- Reading the numbers: p65 translocation z-score and gene median z-score, per vendor: higher = more nuclear NF-kappaB p65 after LPS
- Call rule: 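An siRNA is called active when the mean z-score of its two replicates is above 2 or below -2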
- Meaning of the calls: active = changed p65 translocation (either direction); inactive = no clear change

target gene,reagent,siRNA vendor or control pool,"p65 translocation z-score, replicate mean","p65 translocation z-score, replicate 1","p65 translocation z-score, replicate 2","gene median z-score, per vendor"
Zfp938 (zinc finger protein 938),1,ambion single siRNA,-1.45,-2.25,-0.644,-1.45
Zfp938 (zinc finger protein 938),2,ambion single siRNA,0.334,1.15,-0.484,-1.45
Zfp938 (zinc finger protein 938),3,ambion single siRNA,-4.38 (active),-4,-4.75,-1.45
Zfp938 (zinc finger protein 938),4,qiagen single siRNA,1.87,1.87,,0.582
Zfp938 (zinc finger protein 938),5,qiagen single siRNA,-0.257,0.121,-0.636,0.582
Zfp938 (zinc finger protein 938),6,qiagen single siRNA,1.75,0.582,2.92,0.582
"Atp1b3 (ATPase, Na+/K+ transporting, beta 3 polypeptide)",1,ambion single siRNA,-2.25 (active),-2.82,-1.69,-2.92
"Atp1b3 (ATPase, Na+/K+ transporting, beta 3 polypeptide)",2,ambion single siRNA,-2.32 (active),-3.01,-1.62,-2.92
"Atp1b3 (ATPase, Na+/K+ transporting, beta 3 polypeptide)",3,ambion single siRNA,-5.71 (active),-6.43,-4.99,-2.92
"Atp1b3 (ATPase, Na+/K+ transporting, beta 3 polypeptide)",4,qiagen single siRNA,1.75,0.22,3.27,0.662
"Atp1b3 (ATPase, Na+/K+ transporting, beta 3 polypeptide)",5,qiagen single siRNA,1.08,0.242,1.93,0.662
"Atp1b3 (ATPase, Na+/K+ transporting, beta 3 polypeptide)",6,qiagen single siRNA,0.271,-0.542,1.08,0.662
Vmp1 (vacuole membrane protein 1),1,ambion single siRNA,-1.74,-1.64,-1.85,-1.24
Vmp1 (vacuole membrane protein 1),2,ambion single siRNA,-1.35,-0.854,-1.84,-1.24
Vmp1 (vacuole membrane protein 1),3,ambion single siRNA,1.09,0.0649,2.11,-1.24
Vmp1 (vacuole membrane protein 1),4,qiagen single siRNA,0.867,0.33,1.4,-1.58
Vmp1 (vacuole membrane protein 1),5,qiagen single siRNA,-2.5 (active),-3.71,-1.3,-1.58
Vmp1 (vacuole membrane protein 1),6,qiagen single siRNA,-2.8 (active),-3.72,-1.87,-1.58
4933431E20Rik (RIKEN cDNA 4933431E20 gene),1,qiagen single siRNA,-0.0147,-1.43,1.4,-1.51
4933431E20Rik (RIKEN cDNA 4933431E20 gene),2,qiagen single siRNA,-2.17 (active),-1.48,-2.87,-1.51
4933431E20Rik (RIKEN cDNA 4933431E20 gene),3,qiagen single siRNA,-2.96 (active),-1.54,-4.38,-1.51
Thbs2 (thrombospondin 2),1,ambion single siRNA,-1.17,-1.29,-1.05,-2.86
Thbs2 (thrombospondin 2),2,ambion single siRNA,-7.34 (active),-8.22,-6.47,-2.86
Thbs2 (thrombospondin 2),3,ambion single siRNA,-2.86 (active),-1.48,-4.24,-2.86
Thbs2 (thrombospondin 2),4,qiagen single siRNA,3.58 (active),3.2,3.95,1.63
Thbs2 (thrombospondin 2),5,qiagen single siRNA,1.63,0.468,2.79,1.63
Thbs2 (thrombospondin 2),6,qiagen single siRNA,-2.63 (active),-1.76,-3.5,1.63

5 entries from above, limited to “p65 translocation z-score, replicate 2”.
Atp1b3 (ATPase, Na+/K+ transporting, beta 3 polypeptide) #2, siRNA vendor or control pool ambion single siRNA = -1.62 (active)
Atp1b3 (ATPase, Na+/K+ transporting, beta 3 polypeptide) #3, siRNA vendor or control pool ambion single siRNA = -4.99 (active)
Atp1b3 (ATPase, Na+/K+ transporting, beta 3 polypeptide) #4, siRNA vendor or control pool qiagen single siRNA = 3.27
Atp1b3 (ATPase, Na+/K+ transporting, beta 3 polypeptide) #5, siRNA vendor or control pool qiagen single siRNA = 1.93
Atp1b3 (ATPase, Na+/K+ transporting, beta 3 polypeptide) #6, siRNA vendor or control pool qiagen single siRNA = 1.08

The list goes on.
target gene,reagent,siRNA vendor or control pool,"p65 translocation z-score, replicate mean","p65 translocation z-score, replicate 1","p65 translocation z-score, replicate 2","gene median z-score, per vendor"
Cdh1 (cadherin 1),1,ambion single siRNA,-1.91,-1.91,,-2.09
Cdh1 (cadherin 1),2,ambion single siRNA,-2.63 (active),-2.02,-3.24,-2.09
Cdh1 (cadherin 1),3,ambion single siRNA,-2.78 (active),-3.48,-2.09,-2.09
Cdh1 (cadherin 1),4,qiagen single siRNA,-3.89 (active),-2.31,-5.47,-2.05
Cdh1 (cadherin 1),5,qiagen single siRNA,0.743,0.467,1.02,-2.05
Cdh1 (cadherin 1),6,qiagen single siRNA,-2.76 (active),-1.8,-3.71,-2.05
Lce3c (late cornified envelope 3C),1,ambion single siRNA,4.2 (active),5.28,3.13,1.3
Lce3c (late cornified envelope 3C),2,ambion single siRNA,1.3,1.28,1.32,1.3
Lce3c (late cornified envelope 3C),3,ambion single siRNA,0.0675,-0.447,0.582,1.3
Lce3c (late cornified envelope 3C),4,qiagen single siRNA,2.4 (active),2.67,2.12,-0.348
Lce3c (late cornified envelope 3C),5,qiagen single siRNA,-0.746,-0.594,-0.899,-0.348
Lce3c (late cornified envelope 3C),6,qiagen single siRNA,-0.421,-0.74,-0.103,-0.348
Apool (apolipoprotein O-like),1,ambion single siRNA,-0.74,-1.16,-0.315,-0.74
Apool (apolipoprotein O-like),2,ambion single siRNA,0.811,-0.282,1.9,-0.74
Apool (apolipoprotein O-like),3,ambion single siRNA,-6.62 (active),-5.91,-7.33,-0.74
Apool (apolipoprotein O-like),4,qiagen single siRNA,-1.97,-2.2,-1.75,-0.691
Apool (apolipoprotein O-like),5,qiagen single siRNA,-0.47,-0.691,-0.25,-0.691
Apool (apolipoprotein O-like),6,qiagen single siRNA,1.54,1.54,,-0.691
Or8g24 (olfactory receptor family 8 subfamily G member 24),1,ambion single siRNA,-0.972,-0.284,-1.66,-2.91
Or8g24 (olfactory receptor family 8 subfamily G member 24),2,ambion single siRNA,-2.9 (active),-4.16,-1.64,-2.91
Or8g24 (olfactory receptor family 8 subfamily G member 24),3,ambion single siRNA,-6.68 (active),-7.1,-6.25,-2.91
Or8g24 (olfactory receptor family 8 subfamily G member 24),4,qiagen single siRNA,-0.806,-0.797,-0.816,-0.211
Or8g24 (olfactory receptor family 8 subfamily G member 24),5,qiagen single siRNA,1.05,-0.573,2.68,-0.211
Or8g24 (olfactory receptor family 8 subfamily G member 24),6,qiagen single siRNA,0.241,0.33,0.151,-0.211
